These are yes or no findings as the source states them, for the method shown. Binding seen in cells or lysates may run through a third protein. A result given as binding can be weak or reduced; the word gives no strength.
T1: MetF subunit of the methylene-THF reductase MetFV of T. kivui (Thermoanaerobacter kivui)
T1 sequence: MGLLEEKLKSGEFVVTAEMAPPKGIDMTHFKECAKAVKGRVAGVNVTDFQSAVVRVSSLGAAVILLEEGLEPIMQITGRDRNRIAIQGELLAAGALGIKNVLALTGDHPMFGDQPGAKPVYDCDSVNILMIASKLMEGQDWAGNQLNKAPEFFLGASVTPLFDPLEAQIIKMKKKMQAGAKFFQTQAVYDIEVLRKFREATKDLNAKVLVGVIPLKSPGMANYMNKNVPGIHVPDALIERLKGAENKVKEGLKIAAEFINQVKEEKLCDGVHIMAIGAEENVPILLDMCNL

By UniProt entry, the sequences of proteins in these tests, tags left out. Where a name states a change or a piece, a line headed by the entry shows the natural chain unless it says otherwise.
UniProt A0A097ATJ4: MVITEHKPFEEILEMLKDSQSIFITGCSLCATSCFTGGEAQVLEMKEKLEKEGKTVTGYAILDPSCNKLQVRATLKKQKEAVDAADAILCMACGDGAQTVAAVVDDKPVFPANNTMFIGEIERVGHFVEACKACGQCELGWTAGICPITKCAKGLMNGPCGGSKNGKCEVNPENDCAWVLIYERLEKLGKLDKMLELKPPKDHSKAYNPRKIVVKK

B1: HydB subunit of the electron-bifurcating hydrogenase HydABC of T. kivui (protein, UniProt A0A097ATG4 1-630)
chain: MVKLKSIQELENLREKIKEAKKKEKIVIRICGGTGCRASGSLAVRDELVKVLKREGFANVDVNLSSDCLENTSEVHVKMTGCQGFCAQGPLMTIEPLGVFYVGVKPEDVEEIVEKSIKKNEIIERLLYHDPATGKTYVKRDENPFYAKQTRLVLKHCGTVDPASVYDYIAEGGYSAIAKALTMDRKQIIDEVIKSGLRGRGGAGFPTGEKWLGAYKNQSPKKYIICNGDEGDPGAFMDRSVMEGDPHKVIEGMMIGAYAIGSDEGYIYVRAEYPLAVQMLRKAIEECEKLGLLGDNILGTGFSFRLHVREGAGAFVCGESTALTYSIEGKRGMPRVRPPRTNECGLWEMPTVLNNVETFACIPEIILNGGEWFASIGTPTSTGTKIFALSGKVNRTGLVEVPMGLKLRELIFDIGGGIANNKKFKAVQLGGPSGGCVPESQLDLPIDFDSLSKAGAIMGSGGVVVVDEDTCMVDFAKFFTNFIVEESCGKCIPCREGNKKMLEILERITEGKGKEGDIELLEELGDVIISASLCGLGKTAPNPVLSTIKHFRDEYEAHIRDKKCPAGACQALAAYKIDPGKCIGCGKCVKVCPVGAISGEKKKPHVIDQSKCIKCGACAENCPKGAIYKG
B2: HydC subunit of the electron-bifurcating hydrogenase HydABC of T. kivui (protein, UniProt A0A097ATI0 1-170)
chain: MCNCCCKGSKDPRFEKVDEILSKLANERGALIAILQHVQHEFGYLPEDVIFYIASKTGIPASKIYGVATFYAQFHLKPRGKYVIRVCLGTACHVKGANKILAEFEKQLGIKAGETTSDLKFTLERVGCLGACGLAPTVMVNEKTYGKMTPEKVSEVLKEYSDVEAAASAQ

Key:
[1] = biological target: T1, MetF subunit of the methylene-THF reductase MetFV of T. kivui (Thermoanaerobacter kivui); assay: co-purification (Ni2+-NTA affinity chromatography, then size exclusion chromatography; SDS-PAGE with Coomassie stain); His-tagged complex produced in T. kivui, purified from CFE on Ni2+-NTA resin and Superdex 200 under anoxic conditions at room temperature; subunits seen on a 12% SDS-polyacrylamide gel
[2] = biological target: HydA subunit of the electron-bifurcating hydrogenase HydABC of T. kivui, with 10x His-tag (Thermoanaerobacter kivui); assay: as above

binding [1]	binding [2]	Molecule
binds	–	MetV subunit of the methylene-THF reductase MetFV of T. kivui (from UniProt A0A097ATJ4)
–	binds	B1
–	binds	B2

From publication PMC8578170, “Electron carriers involved in autotrophic and heterotrophic acetogenesis in the thermophilic bacterium Thermoanaerobacter kivui” (Extremophiles, 2021)
